Measurements published in the supplement of paper PMC10849652.
The other results are listed elsewhere or left out.

By UniProt entry, the sequences of proteins in these tests, tags left out. Where a name states a change or a piece, a line headed by the entry shows the natural chain unless it says otherwise.
UniProt P16930: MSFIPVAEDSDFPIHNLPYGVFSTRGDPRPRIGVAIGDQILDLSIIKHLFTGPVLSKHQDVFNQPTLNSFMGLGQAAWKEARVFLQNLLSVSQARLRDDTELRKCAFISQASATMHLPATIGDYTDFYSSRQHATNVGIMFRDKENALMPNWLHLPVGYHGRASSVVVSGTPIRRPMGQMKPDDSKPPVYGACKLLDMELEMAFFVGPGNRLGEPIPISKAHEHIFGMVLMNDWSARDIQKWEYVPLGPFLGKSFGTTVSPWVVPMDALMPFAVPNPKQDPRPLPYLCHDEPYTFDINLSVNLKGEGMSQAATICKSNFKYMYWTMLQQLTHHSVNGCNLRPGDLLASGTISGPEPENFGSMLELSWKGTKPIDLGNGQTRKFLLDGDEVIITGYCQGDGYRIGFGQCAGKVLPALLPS
UniProt P15311, whole entry, looked up: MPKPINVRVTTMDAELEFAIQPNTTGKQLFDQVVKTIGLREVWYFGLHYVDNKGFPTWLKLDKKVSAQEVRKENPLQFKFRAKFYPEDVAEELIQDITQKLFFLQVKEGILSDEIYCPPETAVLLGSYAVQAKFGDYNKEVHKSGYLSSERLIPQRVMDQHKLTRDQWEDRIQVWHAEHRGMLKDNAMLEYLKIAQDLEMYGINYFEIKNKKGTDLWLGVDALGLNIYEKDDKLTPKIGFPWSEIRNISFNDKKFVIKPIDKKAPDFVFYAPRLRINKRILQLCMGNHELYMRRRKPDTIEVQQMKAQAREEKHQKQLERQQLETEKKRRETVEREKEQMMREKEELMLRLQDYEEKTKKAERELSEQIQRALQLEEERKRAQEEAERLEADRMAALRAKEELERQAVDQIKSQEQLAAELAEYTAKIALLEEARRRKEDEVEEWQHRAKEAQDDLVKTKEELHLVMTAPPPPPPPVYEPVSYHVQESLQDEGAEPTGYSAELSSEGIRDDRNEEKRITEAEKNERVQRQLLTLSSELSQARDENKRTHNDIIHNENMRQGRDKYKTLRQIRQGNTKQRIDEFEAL
UniProt O95571: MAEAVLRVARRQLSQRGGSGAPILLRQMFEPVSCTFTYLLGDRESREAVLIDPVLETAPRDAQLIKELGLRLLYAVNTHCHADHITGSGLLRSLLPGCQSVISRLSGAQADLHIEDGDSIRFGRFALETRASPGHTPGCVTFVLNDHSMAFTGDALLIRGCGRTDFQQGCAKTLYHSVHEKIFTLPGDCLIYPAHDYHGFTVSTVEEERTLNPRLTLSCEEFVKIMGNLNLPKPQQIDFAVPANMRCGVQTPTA
UniProt Q8TBG4: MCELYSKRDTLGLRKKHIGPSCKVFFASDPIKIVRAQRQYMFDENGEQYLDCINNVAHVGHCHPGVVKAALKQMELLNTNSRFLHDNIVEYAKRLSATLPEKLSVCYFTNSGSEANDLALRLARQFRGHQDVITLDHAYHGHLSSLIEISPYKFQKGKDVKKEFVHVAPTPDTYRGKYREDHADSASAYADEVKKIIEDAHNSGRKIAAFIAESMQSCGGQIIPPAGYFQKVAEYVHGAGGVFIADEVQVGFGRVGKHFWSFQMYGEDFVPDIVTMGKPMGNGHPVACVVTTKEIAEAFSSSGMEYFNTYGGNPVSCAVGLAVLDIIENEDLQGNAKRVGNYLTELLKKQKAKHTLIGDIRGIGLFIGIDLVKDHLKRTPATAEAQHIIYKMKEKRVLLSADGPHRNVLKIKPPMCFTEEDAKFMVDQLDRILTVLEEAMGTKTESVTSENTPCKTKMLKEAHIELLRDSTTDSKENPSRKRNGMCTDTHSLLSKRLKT
UniProt A0FGR8: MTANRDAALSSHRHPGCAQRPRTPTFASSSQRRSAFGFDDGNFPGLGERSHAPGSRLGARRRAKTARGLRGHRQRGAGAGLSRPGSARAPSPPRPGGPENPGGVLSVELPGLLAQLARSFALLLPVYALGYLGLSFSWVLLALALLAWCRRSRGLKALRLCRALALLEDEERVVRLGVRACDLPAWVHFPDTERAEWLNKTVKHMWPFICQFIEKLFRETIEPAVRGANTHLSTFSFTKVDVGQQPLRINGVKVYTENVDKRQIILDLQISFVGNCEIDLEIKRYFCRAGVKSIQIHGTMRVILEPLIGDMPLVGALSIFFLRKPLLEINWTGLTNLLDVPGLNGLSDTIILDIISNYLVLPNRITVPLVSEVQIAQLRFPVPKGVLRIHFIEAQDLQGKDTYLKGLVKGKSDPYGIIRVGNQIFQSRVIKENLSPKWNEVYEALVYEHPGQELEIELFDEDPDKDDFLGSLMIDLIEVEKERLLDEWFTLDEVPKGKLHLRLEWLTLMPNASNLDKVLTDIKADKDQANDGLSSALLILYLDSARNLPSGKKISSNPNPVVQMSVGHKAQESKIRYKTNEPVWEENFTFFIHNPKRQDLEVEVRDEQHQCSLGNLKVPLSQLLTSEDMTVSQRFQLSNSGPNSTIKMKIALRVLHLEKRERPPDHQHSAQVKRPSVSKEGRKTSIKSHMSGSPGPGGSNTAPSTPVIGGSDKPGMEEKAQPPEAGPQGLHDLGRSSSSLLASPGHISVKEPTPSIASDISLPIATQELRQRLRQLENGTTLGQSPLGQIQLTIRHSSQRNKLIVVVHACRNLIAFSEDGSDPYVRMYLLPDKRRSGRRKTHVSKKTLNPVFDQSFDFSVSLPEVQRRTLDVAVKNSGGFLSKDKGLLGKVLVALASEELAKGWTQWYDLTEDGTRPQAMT
UniProt Q96HE7: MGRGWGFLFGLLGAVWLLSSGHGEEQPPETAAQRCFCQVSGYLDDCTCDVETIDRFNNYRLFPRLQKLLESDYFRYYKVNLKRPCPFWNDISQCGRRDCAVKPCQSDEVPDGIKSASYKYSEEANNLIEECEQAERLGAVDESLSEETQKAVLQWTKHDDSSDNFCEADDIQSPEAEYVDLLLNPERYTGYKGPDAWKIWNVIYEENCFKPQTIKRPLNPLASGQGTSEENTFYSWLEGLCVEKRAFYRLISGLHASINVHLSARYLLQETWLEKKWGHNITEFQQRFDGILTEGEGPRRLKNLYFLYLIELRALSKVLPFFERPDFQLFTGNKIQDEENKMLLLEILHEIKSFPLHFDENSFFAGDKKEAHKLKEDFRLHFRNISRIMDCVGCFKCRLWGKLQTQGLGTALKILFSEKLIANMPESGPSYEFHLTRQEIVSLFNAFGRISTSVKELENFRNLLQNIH
UniProt Q5BKY9: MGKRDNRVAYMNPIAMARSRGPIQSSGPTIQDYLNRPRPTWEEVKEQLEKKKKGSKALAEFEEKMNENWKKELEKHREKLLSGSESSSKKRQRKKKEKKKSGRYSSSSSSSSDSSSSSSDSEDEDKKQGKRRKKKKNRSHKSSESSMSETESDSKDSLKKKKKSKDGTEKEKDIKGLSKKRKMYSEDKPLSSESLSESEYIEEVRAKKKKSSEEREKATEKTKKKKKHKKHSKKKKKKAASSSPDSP
UniProt Q9Y3B2, whole entry, looked up: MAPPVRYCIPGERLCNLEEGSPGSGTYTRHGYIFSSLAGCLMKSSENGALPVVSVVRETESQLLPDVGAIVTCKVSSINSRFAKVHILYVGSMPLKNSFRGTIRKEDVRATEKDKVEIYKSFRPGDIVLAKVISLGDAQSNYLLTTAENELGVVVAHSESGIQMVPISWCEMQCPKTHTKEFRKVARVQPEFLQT
UniProt Q9Y6I3: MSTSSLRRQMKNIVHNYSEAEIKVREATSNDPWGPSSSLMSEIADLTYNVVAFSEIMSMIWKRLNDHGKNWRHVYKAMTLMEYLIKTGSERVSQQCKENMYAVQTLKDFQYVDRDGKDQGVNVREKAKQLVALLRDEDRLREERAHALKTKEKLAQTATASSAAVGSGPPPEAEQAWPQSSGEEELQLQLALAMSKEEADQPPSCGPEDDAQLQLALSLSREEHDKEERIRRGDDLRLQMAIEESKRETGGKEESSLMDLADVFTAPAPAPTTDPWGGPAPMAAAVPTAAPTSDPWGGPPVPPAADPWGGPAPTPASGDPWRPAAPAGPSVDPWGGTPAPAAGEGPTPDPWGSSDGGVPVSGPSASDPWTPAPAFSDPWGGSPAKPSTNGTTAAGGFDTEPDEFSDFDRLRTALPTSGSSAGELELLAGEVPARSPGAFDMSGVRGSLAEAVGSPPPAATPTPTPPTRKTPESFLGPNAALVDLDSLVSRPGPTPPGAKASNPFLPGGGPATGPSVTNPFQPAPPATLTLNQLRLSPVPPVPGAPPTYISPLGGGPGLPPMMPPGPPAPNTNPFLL
UniProt Q92889: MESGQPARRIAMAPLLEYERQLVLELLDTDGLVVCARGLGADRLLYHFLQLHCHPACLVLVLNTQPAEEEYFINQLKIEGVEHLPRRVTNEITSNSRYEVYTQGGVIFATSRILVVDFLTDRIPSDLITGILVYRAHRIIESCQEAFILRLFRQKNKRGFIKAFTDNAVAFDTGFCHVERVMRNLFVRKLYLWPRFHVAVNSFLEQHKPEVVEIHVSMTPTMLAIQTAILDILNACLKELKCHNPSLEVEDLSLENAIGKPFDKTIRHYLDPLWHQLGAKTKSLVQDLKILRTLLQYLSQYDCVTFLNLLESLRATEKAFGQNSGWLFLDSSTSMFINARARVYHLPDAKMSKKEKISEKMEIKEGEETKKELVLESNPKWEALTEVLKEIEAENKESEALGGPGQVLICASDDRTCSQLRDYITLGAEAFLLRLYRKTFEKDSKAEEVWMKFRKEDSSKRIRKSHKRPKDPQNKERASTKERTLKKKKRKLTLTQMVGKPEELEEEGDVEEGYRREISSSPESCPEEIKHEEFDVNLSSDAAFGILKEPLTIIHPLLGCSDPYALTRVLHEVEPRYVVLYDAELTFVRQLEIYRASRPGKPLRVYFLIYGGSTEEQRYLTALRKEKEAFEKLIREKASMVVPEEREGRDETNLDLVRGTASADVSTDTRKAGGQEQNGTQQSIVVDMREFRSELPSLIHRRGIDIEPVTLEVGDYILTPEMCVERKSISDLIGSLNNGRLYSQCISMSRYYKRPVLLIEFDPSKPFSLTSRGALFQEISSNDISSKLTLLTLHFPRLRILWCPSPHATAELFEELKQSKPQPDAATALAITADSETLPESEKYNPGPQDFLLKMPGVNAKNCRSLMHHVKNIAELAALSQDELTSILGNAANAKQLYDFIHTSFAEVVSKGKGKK
UniProt O43414: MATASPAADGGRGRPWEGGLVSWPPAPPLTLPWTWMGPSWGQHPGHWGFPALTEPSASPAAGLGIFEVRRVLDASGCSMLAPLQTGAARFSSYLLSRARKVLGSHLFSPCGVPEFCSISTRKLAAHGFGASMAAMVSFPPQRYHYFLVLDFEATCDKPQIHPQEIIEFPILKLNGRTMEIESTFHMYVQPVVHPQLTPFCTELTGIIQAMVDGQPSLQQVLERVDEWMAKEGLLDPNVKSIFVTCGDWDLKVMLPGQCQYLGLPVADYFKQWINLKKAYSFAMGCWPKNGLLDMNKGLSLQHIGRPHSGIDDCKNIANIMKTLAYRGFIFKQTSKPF
UniProt Q06265, whole entry, looked up: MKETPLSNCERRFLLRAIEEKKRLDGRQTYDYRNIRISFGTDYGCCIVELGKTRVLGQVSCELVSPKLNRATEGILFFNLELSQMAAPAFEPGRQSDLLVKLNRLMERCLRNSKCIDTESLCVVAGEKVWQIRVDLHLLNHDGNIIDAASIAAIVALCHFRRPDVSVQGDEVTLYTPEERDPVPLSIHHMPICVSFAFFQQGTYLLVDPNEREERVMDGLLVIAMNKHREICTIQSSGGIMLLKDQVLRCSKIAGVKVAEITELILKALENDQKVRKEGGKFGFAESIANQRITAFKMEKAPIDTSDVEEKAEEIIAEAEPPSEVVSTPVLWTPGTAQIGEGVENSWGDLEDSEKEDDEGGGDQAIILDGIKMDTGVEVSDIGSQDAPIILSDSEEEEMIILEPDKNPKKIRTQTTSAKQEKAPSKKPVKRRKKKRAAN
UniProt Q96DZ1: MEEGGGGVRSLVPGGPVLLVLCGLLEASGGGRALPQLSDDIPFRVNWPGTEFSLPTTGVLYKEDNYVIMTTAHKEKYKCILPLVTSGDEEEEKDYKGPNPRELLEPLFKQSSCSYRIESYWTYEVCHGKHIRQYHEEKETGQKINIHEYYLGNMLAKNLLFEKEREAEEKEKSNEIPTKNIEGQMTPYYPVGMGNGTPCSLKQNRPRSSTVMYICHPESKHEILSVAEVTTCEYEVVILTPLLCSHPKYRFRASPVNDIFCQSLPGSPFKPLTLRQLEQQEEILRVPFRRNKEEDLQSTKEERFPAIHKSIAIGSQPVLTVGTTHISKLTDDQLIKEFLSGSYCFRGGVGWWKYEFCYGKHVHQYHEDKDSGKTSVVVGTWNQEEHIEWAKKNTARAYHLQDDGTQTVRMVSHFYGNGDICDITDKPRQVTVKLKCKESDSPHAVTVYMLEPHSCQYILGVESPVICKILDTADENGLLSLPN
UniProt P84090, whole entry, looked up: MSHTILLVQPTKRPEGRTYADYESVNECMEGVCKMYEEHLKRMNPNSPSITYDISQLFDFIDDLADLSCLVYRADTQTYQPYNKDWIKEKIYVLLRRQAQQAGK

How the values were obtained:
Test in all cases: log2 fold change, soluble protein after heating vs DMSO (PISA); higher = thermal stabilisation; K562 cells, 10 uM, 30 min; active = over 0.2 and 3.5 SD of the protein, either way, in both replicates (recomputed)
[1] = compound: CC[C@@H]1C(=O)N(C)c2cnc(Nc3ccc(C(=O)NC4CCN(C)CC4)cc3OC)nc2N1C1CCCC1
How it was run: (§1)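 K562 cells at 2×10^6 cells/mL were treated with 10 μM compound for 30 min. Aliquots were heated for 3 min across 48°C-58°C, pooled, and extracted in PBS with 0.5% NP-40 at 4°C; soluble protein was the supernatant after 21,000xg for 90 min. Soluble protein was quantified by TMTpro 16plex LC-MS/MS with channel sums equalised, and reported as log2 fold change in thermal stability against DMSO controls, with values from duplicates.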

[2] = compound: CC[C@@H]1C(=O)N(C)c2cnc(Nc3ccc(C(=O)N[C@H]4CC[C@H](N5CCN(CC6CC6)CC5)CC4)cc3OC)nc2N1C(C)C [volasertib]
How it was run: as §1

[3] = compound: CC[C@H](C)N1C=C(C2=C(C=C(C=C21)C3=CN=C(C=C3)N4CCNCC4)C(=O)NCC5=C(C=C(NC5=O)C)C)C
How it was run: as §1

[4] = compound: CC[C@H](C)[C@@H](C(=O)N[C@@H]([C@@H](C)O)C(=O)N[C@@H](CC(C)C)C(=O)[C@]1(CO1)C)NC(=O)[C@H]([C@@H](C)CC)N(C)C(=O)C [epoxomicin]
How it was run: as §1

[5] = compound: CCn1c(C(=O)N(C2CC2)C2CC2)cc2c3c(ncn3C)c(Nc3cc(C)n(C)n3)nc21
How it was run: as §1

[6] = compound: CCn1cc(-c2ccnc3[nH]c(-c4cccc(CN(C)C)c4)cc23)c(-c2ccc(NC(=O)N(C)C)cc2)n1
How it was run: as §1

[7] = compound: CN(C)CC(=O)Nc1ccc2[nH]c(=O)c3ccccc3c2c1
How it was run: as §1

[8] = compound: CN(CCOC1=CC=C(C=C1)C[C@H]2C(=O)NC(=O)S2)C3=CC=CC=N3 (racemic) [rosiglitazone]
How it was run: as §1

[9] = compound: CN1C2=C(C3=C1C(=O)N(N=C3)CC4=CC(=CC=C4)N)SC(=C2)S(=O)C
How it was run: as §1

[10] = compound: CN1CCC(CNc2ccc3ncc(-c4cccc(OC(F)(F)F)c4)n3n2)CC1
How it was run: as §1

[11] = compound: CN1CCN(CCOc2cc(OC3CCOCC3)c3c(Nc4c(Cl)ccc5c4OCO5)ncnc3c2)CC1 [saracatinib]
How it was run: as §1

[12] = compound: CN1CCN(c2nc(C3=C(c4c[nH]c5ccccc45)C(=O)NC3=O)c3ccccc3n2)CC1 [sotrastaurin]
How it was run: as §1

[13] = compound: CN1CC[C@H](c2c(O)cc(O)c3c(=O)cc(-c4ccccc4Cl)oc23)[C@H](O)C1 [alvocidib]
How it was run: as §1

[14] = compound: CN1CCc2c(c3ccccc3n2Cc2ccc(C(=O)NO)cc2)C1 [Tubastatin A]
How it was run: as §1

[15] = compound: CNC(=O)C1=CC=CC=C1NC2=NC(=NC=C2Cl)NC3=C(C=C(C=C3)N4CCOCC4)OC
How it was run: as §1

[16] = compound: CNC(=O)c1ccc(Nc2ncc(C(F)(F)F)c(NCc3nccnc3N(C)S(C)(=O)=O)n2)cc1 [defactinib]
How it was run: as §1

[17] = compound: CNCc1ccc(-c2[nH]c3cc(F)cc4c3c2CCNC4=O)cc1 [rucaparib]
How it was run: as §1

[18] = compound: CNc1nc(-c2ccc3c(N)n[nH]c3c2)cc(N2C[C@@H](C(=O)NC3CCCCC3)CC[C@H]2C)n1
How it was run: as §1

[19] = compound: COC(=O)N[C@@H](C)CNc1nccc(-c2cn(C(C)C)nc2-c2cc(Cl)cc(NS(C)(=O)=O)c2F)n1 [encorafenib]
How it was run: as §1

[20] = compound: COC(=O)[C@H](CCSC)NC(=O)C1=C(C=C(C=C1)NC[C@H](CS)N)C2=CC=CC=C2
How it was run: as §1

Measured: log2 fold change

FAH (UniProt P16930)
inactive: [1] -0.125 | [2] 0.033 | [3] 0.001 | [4] -0.024 | [5] -0.048 | [6] -0.009 | [7] -0.006 | [8] 0.007 | [9] -0.061 | [10] 0.054 | [11] 0.034 | [12] 0.023 | [13] -0.069 | [14] -0.015 | [15] -0.052 | [16] -0.008 | [17] -0.097 | [18] -0.045 | [19] 0.012 | [20] 0.058

EZR (UniProt P15311)
inactive: [1] 0.01 | [2] 0.021 | [3] 0.012 | [4] 0 | [5] 0.003 | [6] -0.049 | [7] -0.015 | [8] 0.012 | [9] -0.085 | [10] 0.112 | [11] 0.035 | [12] 0.043 | [13] -0.04 | [14] -0.033 | [15] 0.036 | [16] 0.007 | [17] -0.03 | [18] -0.02 | [19] -0.037 | [20] 0.005

ETHE1 (UniProt O95571)
inactive: [1] 0.03 | [2] 0.029 | [3] -0.047 | [4] 0.025 | [5] -0.005 | [6] 0.001 | [7] 0.024 | [8] 0.087 | [9] -0.027 | [10] -0.046 | [11] 0.018 | [12] 0.033 | [13] -0.037 | [14] -0.007 | [15] -0.042 | [16] -0.015 | [17] -0.026 | [18] -0.058 | [19] -0.043 | [20] 0

EWSR1 isoform 5 (UniProt Q01844)
inactive: [1] 0.016 | [2] 0.008 | [3] -0.024 | [4] -0.015 | [5] 0.02 | [6] 0.059 | [7] -0.011 | [8] -0.041 | [9] 0 | [10] 0.071 | [11] 0.039 | [12] 0.024 | [13] 0.041 | [14] -0.037 | [15] -0.03 | [16] 0.04 | [17] 0.04 | [18] -0.071 | [19] -0.042 | [20] 0.052

ETNPPL (UniProt Q8TBG4)
inactive: [1] -0.013 | [2] 0.123 | [3] -0.099 | [4] -0.263 | [5] 0.125 | [6] 0.148 | [7] -0.207 | [8] 0.116 | [9] 0.15 | [10] 0.098 | [11] 0.098 | [12] 0.33 | [13] 0.021 | [14] -0.081 | [15] 0.102 | [16] 0 | [17] -0.185 | [18] -0.096 | [19] -0.025 | [20] 0.172

Reprinted from the entries so far (2 entries):
EZR (UniProt P15311)
inactive: [1] 0.01 | [2] 0.021 | [3] 0.012 | [4] 0 | [5] 0.003 | [6] -0.049 | [7] -0.015 | [8] 0.012 | [9] -0.085 | [10] 0.112 | [11] 0.035 | [12] 0.043 | [13] -0.04 | [14] -0.033 | [15] 0.036 | [16] 0.007 | [17] -0.03 | [18] -0.02 | [19] -0.037 | [20] 0.005

ETHE1 (UniProt O95571)
inactive: [1] 0.03 | [2] 0.029 | [3] -0.047 | [4] 0.025 | [5] -0.005 | [6] 0.001 | [7] 0.024 | [8] 0.087 | [9] -0.027 | [10] -0.046 | [11] 0.018 | [12] 0.033 | [13] -0.037 | [14] -0.007 | [15] -0.042 | [16] -0.015 | [17] -0.026 | [18] -0.058 | [19] -0.043 | [20] 0

More entries

ESYT2 isoform 2 (UniProt A0FGR8)
inactive: [1] -0.015 | [2] -0.17 | [3] 0.049 | [4] 0.019 | [5] -0.046 | [6] -0.005 | [7] 0.026 | [8] 0.019 | [9] -0.026 | [10] -0.085 | [11] 0.007 | [12] 0.05 | [13] -0.03 | [14] -0.002 | [15] 0.005 | [16] -0.087 | [17] -0.009 | [18] -0.03 | [19] 0.032 | [20] 0.003

ERO1A (UniProt Q96HE7)
inactive: [1] 0 | [2] -0.028 | [3] 0.023 | [4] -0.008 | [5] 0.032 | [6] 0.056 | [7] -0.016 | [8] 0.006 | [9] 0.047 | [10] 0.02 | [11] -0.024 | [12] -0.01 | [13] 0 | [14] -0.002 | [15] 0.02 | [16] 0.039 | [17] 0.036 | [18] -0.033 | [19] 0.027 | [20] 0.002

FAM133B (UniProt Q5BKY9)
inactive: [1] 0.005 | [2] 0.046 | [3] 0.005 | [4] 0.059 | [5] 0.004 | [6] 0.016 | [7] -0.07 | [8] 0.018 | [9] -0.02 | [10] -0.028 | [11] 0 | [12] 0.041 | [13] 0 | [14] -0.016 | [15] -0.098 | [16] -0.012 | [17] -0.008 | [18] 0.033 | [19] -0.002 | [20] 0.011

EXOSC1 (UniProt Q9Y3B2)
inactive: [1] -0.009 | [2] -0.024 | [3] 0.033 | [4] -0.09 | [5] -0.009 | [6] 0.07 | [7] 0.005 | [8] -0.011 | [9] 0.129 | [10] 0.111 | [11] -0.107 | [12] 0.029 | [13] 0.061 | [14] -0.009 | [15] 0.019 | [16] -0.002 | [17] 0.128 | [18] 0.071 | [19] 0.115 | [20] -0.012

EPN1 (UniProt Q9Y6I3)
inactive: [1] -0.023 | [2] -0.151 | [3] 0.094 | [4] -0.021 | [5] -0.019 | [6] -0.036 | [7] 0.039 | [8] 0.003 | [9] -0.032 | [10] -0.124 | [11] 0.033 | [12] -0.025 | [13] -0.06 | [14] -0.009 | [15] -0.035 | [16] -0.081 | [17] -0.014 | [18] -0.014 | [19] 0.052 | [20] 0.036

ERCC4 (UniProt Q92889)
inactive: [1] 0.102 | [2] -0.179 | [3] -0.264 | [4] 0.004 | [5] -0.086 | [6] 0.014 | [7] -0.039 | [8] 0.138 | [9] -0.085 | [10] -0.027 | [11] -0.123 | [12] 0.191 | [13] 0.179 | [14] 0.086 | [15] -0.029 | [16] 0.171 | [17] -0.276 | [18] -0.02 | [19] 0.006 | [20] -0.063

ERI3 (UniProt O43414)
inactive: [1] 0.032 | [2] 0.072 | [3] 0.024 | [4] 0.004 | [5] -0.003 | [6] -0.126 | [7] 0.047 | [8] 0.004 | [9] -0.006 | [10] -0.012 | [11] -0.003 | [12] 0.012 | [13] -0.032 | [14] 0.013 | [15] 0.021 | [16] -0.013 | [17] -0.146 | [18] -0.056 | [19] -0.007 | [20] 0.047

EXOSC9 isoform 2 (UniProt Q06265)
inactive: [1] 0.071 | [2] 0.074 | [3] -0.064 | [4] -0.016 | [5] 0.018 | [6] 0.031 | [7] -0.032 | [8] -0.006 | [9] 0.005 | [10] 0.027 | [11] 0.055 | [12] 0.085 | [13] 0.039 | [14] -0.006 | [15] 0.017 | [16] 0.044 | [17] 0.045 | [18] -0.026 | [19] -0.007 | [20] 0.02

F2 (UniProt P00734)
inactive: [1] 0.066 | [2] 0.062 | [3] -0.026 | [4] -0.225 | [5] 0.149 | [6] -0.214 | [7] -0.041 | [8] 0.086 | [9] 0.148 | [10] 0.117 | [11] -0.03 | [12] 0.332 | [13] 0.064 | [14] -0.071 | [15] 0.007 | [16] -0.031 | [17] -0.011 | [18] -0.044 | [19] -0.042 | [20] 0.176

ERLEC1 (UniProt Q96DZ1)
inactive: [1] -0.005 | [2] -0.042 | [3] -0.038 | [4] -0.018 | [5] -0.034 | [6] -0.013 | [7] -0.032 | [8] 0.001 | [9] 0.002 | [10] 0.025 | [11] 0.014 | [12] 0.035 | [13] -0.01 | [14] 0.018 | [15] 0.019 | [16] -0.026 | [17] -0.01 | [18] -0.046 | [19] 0.02 | [20] -0.016

ERH (UniProt P84090)
inactive: [1] 0.053 | [2] 0.11 | [3] 0.033 | [4] 0.183 | [5] 0.037 | [6] 0.048 | [7] -0.019 | [8] -0.019 | [9] -0.012 | [10] 0.087 | [11] -0.016 | [13] -0.144 | [14] 0.042 | [15] -0.088 | [16] -0.072 | [17] 0.06 | [18] -0.001 | [19] -0.063 | [20] -0.004
